Like-named read-outs stand apart in the source and are kept apart here.
SMILES: NCCC[C@H](N)C(=O)O.O=C(O)Cc1ccccc1 [L-ornithine phenyl acetate]
- Results (crystalline form of precipitate) (Test 292, Anti-Solvent (IPA) Addition Ambient Temperature, solvent EtOH: 3% H20): No Solid
- Results (crystalline form of precipitate) (Test 293, Anti-Solvent (IPA) Addition (4° C.), solvent EtOH: 3% H20): No Solid
- Results (crystalline form of precipitate) (Test 294, Anti-Solvent (IPA) Addition (−21° C.), solvent EtOH: 3% H20): No Solid
- Results (crystalline form of precipitate) (Test 295, Anti-Solvent (Ethanol) Addition Ambient Temperature, solvent EtOH: 3% H20): No Solid
- Results (crystalline form of precipitate) (Test 296, Anti-Solvent (Ethanol) Addition (4° C.), solvent EtOH: 3% H20): No Solid
- Results (crystalline form of precipitate) (Test 297, Anti-Solvent (Ethanol) Addition (−21° C.), solvent EtOH: 3% H20): No Solid
- Results (crystalline form of precipitate) (Test 302, Anti-Solvent (IPA) Addition Elevated Temperature, solvent EtOH: 5% H20): No Solid
- Results (crystalline form of precipitate) (Test 303, Anti-Solvent (IPA) Addition Ambient Temperature, solvent EtOH: 5% H20): Form II
- Results (crystalline form of precipitate) (Test 304, Anti-Solvent (IPA) Addition (4° C.), solvent EtOH: 5% H20): No Solid
- Results (crystalline form of precipitate) (Test 305, Anti-Solvent (IPA) Addition (−21° C.), solvent EtOH: 5% H20): No Solid
- Results (crystalline form of precipitate) (Test 306, Anti-Solvent (Ethanol) Addition Ambient Temperature, solvent EtOH: 5% H20): No Solid
- Results (crystalline form of precipitate) (Test 307, Anti-Solvent (Ethanol) Addition (4° C.), solvent EtOH: 5% H20): No Solid
- Results (crystalline form of precipitate) (Test 308, Anti-Solvent (Ethanol) Addition (−21° C.), solvent EtOH: 5% H20): No Solid
- Results (crystalline form of precipitate) (Test 313, Anti-Solvent (IPA) Addition Elevated Temperature, solvent IPA: 1% H20): No Solid
- Results (crystalline form of precipitate) (Test 314, Anti-Solvent (IPA) Addition Ambient Temperature, solvent IPA: 1% H20): No Solid
- Results (crystalline form of precipitate) (Test 315, Anti-Solvent (IPA) Addition (4° C.), solvent IPA: 1% H20): No Solid
- Results (crystalline form of precipitate) (Test 316, Anti-Solvent (IPA) Addition (−21° C.), solvent IPA: 1% H20): No Solid
- Results (crystalline form of precipitate) (Test 317, Anti-Solvent (Ethanol) Addition Ambient Temperature, solvent IPA: 1%H20): No Solid
- Results (crystalline form of precipitate) (Test 318, Anti-Solvent (Ethanol) Addition (4° C.), solvent IPA: 1% H20): No Solid
- Results (crystalline form of precipitate) (Test 319, Anti-Solvent (Ethanol) Addition (−21° C.), solvent IPA: 1% H20): No Solid
- Results (crystalline form of precipitate) (Test 324, Anti-Solvent (IPA) Addition Elevated Temperature, solvent IPA: 3% H20): No Solid
- Results (crystalline form of precipitate) (Test 325, Anti-Solvent (IPA) Addition Ambient Temperature, solvent IPA: 3% H20): No Solid
- Results (crystalline form of precipitate) (Test 326, Anti-Solvent (IPA) Addition (4° C.), solvent IPA: 3% H20): No Solid
- Results (crystalline form of precipitate) (Test 327, Anti-Solvent (IPA) Addition (−21° C.), solvent IPA: 3% H20): No Solid
- Results (crystalline form of precipitate) (Test 328, Anti-Solvent (Ethanol) Addition Ambient Temperature, solvent IPA: 3% H20): No Solid
- Results (crystalline form of precipitate) (Test 329, Anti-Solvent (Ethanol) Addition (4° C.), solvent IPA: 3% H20): No Solid
- Results (crystalline form of precipitate) (Test 330, Anti-Solvent (Ethanol) Addition (−21° C.), solvent IPA: 3% H20): No Solid
- Results (crystalline form of precipitate) (Test 335, Anti-Solvent (IPA) Addition Elevated Temperature, solvent IPA: 5% H20): No Solid
- Results (crystalline form of precipitate) (Test 336, Anti-Solvent (IPA) Addition Ambient Temperature, solvent IPA: 5% H20): No Solid
- Results (crystalline form of precipitate) (Test 337, Anti-Solvent (IPA) Addition (4° C.), solvent IPA: 5% H20): No Solid
- Results (crystalline form of precipitate) (Test 338, Anti-Solvent (IPA) Addition (−21° C.), solvent IPA: 5% H20): No Solid
- Results (crystalline form of precipitate) (Test 339, Anti-Solvent (Ethanol) Addition Ambient Temperature, solvent IPA: 5% H20): No Solid
- Results (crystalline form of precipitate) (Test 340, Anti-Solvent (Ethanol) Addition (4° C.), solvent IPA: 5% H20): No Solid
- Results (crystalline form of precipitate) (Test 341, Anti-Solvent (Ethanol) Addition (−21° C.), solvent IPA: 5% H20): No Solid
- Results (crystalline form of precipitate) (Test 346, Anti-Solvent (IPA) Addition Elevated Temperature, solvent ACN: 1% H20): No Solid
- Results (crystalline form of precipitate) (Test 347, Anti-Solvent (IPA) Addition Ambient Temperature, solvent ACN: 1% H20): No Solid
- Results (crystalline form of precipitate) (Test 348, Anti-Solvent (IPA) Addition (4° C.), solvent ACN: 1% H20): No Solid
- Results (crystalline form of precipitate) (Test 349, Anti-Solvent (IPA) Addition (−21° C.), solvent ACN: 1% H20): No Solid
- Results (crystalline form of precipitate) (Test 350, Anti-Solvent (Ethanol) Addition Ambient Temperature, solvent ACN: 1% H20): No Solid
- Results (crystalline form of precipitate) (Test 351, Anti-Solvent (Ethanol) Addition (4° C.), solvent ACN: 1% H20): No Solid
- Results (crystalline form of precipitate) (Test 352, Anti-Solvent (Ethanol) Addition (−21° C.), solvent ACN: 1% H20): No Solid
- Results (crystalline form of precipitate) (Test 357, Anti-Solvent (IPA) Addition Elevated Temperature, solvent ACN: 6% H20): No Solid
- Results (crystalline form of precipitate) (Test 358, Anti-Solvent (IPA) Addition Ambient Temperature, solvent ACN: 6% H20): No Solid
- Results (crystalline form of precipitate) (Test 359, Anti-Solvent (IPA) Addition (4° C.), solvent ACN: 6% H20): No Solid
- Results (crystalline form of precipitate) (Test 360, Anti-Solvent (IPA) Addition (−21° C.), solvent ACN: 6% H20): No Solid
- Results (crystalline form of precipitate) (Test 361, Anti-Solvent (Ethanol) Addition Ambient Temperature, solvent ACN: 6% H20): No Solid
- Results (crystalline form of precipitate) (Test 362, Anti-Solvent (Ethanol) Addition (4° C.), solvent ACN: 6% H20): No Solid
- Results (crystalline form of precipitate) (Test 363, Anti-Solvent (Ethanol) Addition (−21° C.), solvent ACN: 6% H20): No Solid
- Results (crystalline form of precipitate) (Test 368, Anti-Solvent (IPA) Addition Elevated Temperature, solvent ACN: 12% H20): No Solid
- Results (crystalline form of precipitate) (Test 369, Anti-Solvent (IPA) Addition Ambient Temperature, solvent ACN: 12% H20): Form II
- Results (crystalline form of precipitate) (Test 370, Anti-Solvent (IPA) Addition (4° C.), solvent ACN: 12% H20): No Solid
- Results (crystalline form of precipitate) (Test 371, Anti-Solvent (IPA) Addition (−21° C.), solvent ACN: 12% H20): Form II
- Results (crystalline form of precipitate) (Test 372, Anti-Solvent (Ethanol) Addition Ambient Temperature, solvent ACN: 12% H20): No Solid
- Results (crystalline form of precipitate) (Test 373, Anti-Solvent (Ethanol) Addition (4° C.), solvent ACN: 12% H20): No Solid
- Results (crystalline form of precipitate) (Test 374, Anti-Solvent (Ethanol) Addition (−21° C.), solvent ACN: 12% H20): No Solid
- Results (crystalline form of precipitate) (Test 379, Anti-Solvent (IPA) Addition Elevated Temperature, solvent DMF: 5% H20): No Solid
- Results (crystalline form of precipitate) (Test 380, Anti-Solvent (IPA) Addition Ambient Temperature, solvent DMF: 5% H20): No Solid
- Results (crystalline form of precipitate) (Test 381, Anti-Solvent (IPA) Addition (4° C.), solvent DMF: 5% H20): No Solid
- Results (crystalline form of precipitate) (Test 382, Anti-Solvent (IPA) Addition (−21° C.), solvent DMF: 5% H20): No Solid
- Results (crystalline form of precipitate) (Test 383, Anti-Solvent (Ethanol) Addition Ambient Temperature, solvent DMF: 5% H20): No Solid
- Results (crystalline form of precipitate) (Test 384, Anti-Solvent (Ethanol) Addition (4° C.), solvent DMF: 5% H20): No Solid
- Results (crystalline form of precipitate) (Test 385, Anti-Solvent (Ethanol) Addition (−21° C.), solvent DMF: 5% H20): No Solid
- Results (crystalline form of precipitate) (Test 390, Anti-Solvent (IPA) Addition Elevated Temperature, solvent DMF: 15% H20): No Solid
- Results (crystalline form of precipitate) (Test 391, Anti-Solvent (IPA) Addition Ambient Temperature, solvent DMF: 15% H20): No Solid
- Results (crystalline form of precipitate) (Test 392, Anti-Solvent (IPA) Addition (4° C.), solvent DMF: 15% H20): No Solid
- Results (crystalline form of precipitate) (Test 393, Anti-Solvent (IPA) Addition (−21° C.), solvent DMF: 15% H20): No Solid
- Results (crystalline form of precipitate) (Test 394, Anti-Solvent (Ethanol) Addition Ambient Temperature, solvent DMF: 15% H20): No Solid
- Results (crystalline form of precipitate) (Test 395, Anti-Solvent (Ethanol) Addition (4° C.), solvent DMF: 15% H20): No Solid
- Results (crystalline form of precipitate) (Test 396, Anti-Solvent (Ethanol) Addition (−21° C.), solvent DMF: 15% H20): No Solid
- Results (crystalline form of precipitate) (Test 401, Anti-Solvent (IPA) Addition Elevated Temperature, solvent DMF: 30% H20): Form II
- Results (crystalline form of precipitate) (Test 402, Anti-Solvent (IPA) Addition Ambient Temperature, solvent DMF: 30% H20): Form II
- Results (crystalline form of precipitate) (Test 403, Anti-Solvent (IPA) Addition (4° C.), DMF: 30% H20): Form II
- Results (crystalline form of precipitate) (Test 404, Anti-Solvent (IPA) Addition (−21° C.), DMF: 30% H20): Form II
- Results (crystalline form of precipitate) (Test 405, Anti-Solvent (Ethanol) Addition Ambient Temperature, DMF: 30% H20): Form II
- Results (crystalline form of precipitate) (Test 406, Anti-Solvent (Ethanol) Addition (4° C.), DMF: 30% H20): No Solid
- Results (crystalline form of precipitate) (Test 407, Anti-Solvent (Ethanol) Addition (−21° C.), DMF: 30% H20): Form II
- Results (crystalline form of precipitate) (Test 412, Anti-Solvent (IPA) Addition Elevated Temperature, 1,4-dioxane: 1% H20): No Solid
- Results (crystalline form of precipitate) (Test 413, Anti-Solvent (IPA) Addition Ambient Temperature, 1,4-dioxane: 1% H20): No Solid
- Results (crystalline form of precipitate) (Test 414, Anti-Solvent (IPA) Addition (4° C.), 1,4-dioxane: 1% H20): No Solid
- Results (crystalline form of precipitate) (Test 415, Anti-Solvent (IPA) Addition (−21° C.), 1,4-dioxane: 1% H20): No Solid
- Results (crystalline form of precipitate) (Test 416, Anti-Solvent (Ethanol) Addition Ambient Temperature, 1,4-dioxane: 1% H20): No Solid
- Results (crystalline form of precipitate) (Test 417, Anti-Solvent (Ethanol) Addition (4° C.), 1,4-dioxane: 1% H20): No Solid
- Results (crystalline form of precipitate) (Test 418, Anti-Solvent (Ethanol) Addition (−21° C.), 1,4-dioxane: 1% H20): No Solid
- Results (crystalline form of precipitate) (Test 423, Anti-Solvent (IPA) Addition Elevated Temperature, 1,4-dioxane: 3% H20): No Solid
- Results (crystalline form of precipitate) (Test 424, Anti-Solvent (IPA) Addition Ambient Temperature, 1,4-dioxane: 3% H20): No Solid
- Results (crystalline form of precipitate) (Test 425, Anti-Solvent (IPA) Addition (4° C.), 1,4-dioxane: 3% H20): No Solid
- Results (crystalline form of precipitate) (Test 426, Anti-Solvent (IPA) Addition (−21° C.), 1,4-dioxane: 3% H20): No Solid
- Results (crystalline form of precipitate) (Test 427, Anti-Solvent (Ethanol) Addition Ambient Temperature, 1,4-dioxane: 3% H20): No Solid
- Results (crystalline form of precipitate) (Test 428, Anti-Solvent (Ethanol) Addition (4° C.), 1,4-dioxane: 3% H20): No Solid
- Results (crystalline form of precipitate) (Test 429, Anti-Solvent (Ethanol) Addition (−21° C.), 1,4-dioxane: 3% H20): No Solid
- Results (crystalline form of precipitate) (Test 434, Anti-Solvent (IPA) Addition Elevated Temperature, 1,4-dioxane: 10% H20): No Solid
- Results (crystalline form of precipitate) (Test 435, Anti-Solvent (IPA) Addition Ambient Temperature, 1,4-dioxane: 10% H20): No Solid

Reference: patent US12516015B2 (AMALIVE LIMITED, priority 2009, dated 2026)
